{"source": "PubChem BioAssay AID1259405 (NCATS, 2018)", "assay": "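Silenced genes that increase secreted GFP made by CHO cells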 (primary screen)", "cells": "Chinese hamster CHO-K1 ovary cells with stable secreted eGFP expression", "reagents": "single siRNA against mouse genes, 0.8 pmol siRNA per well (2 µl of 400 nM stock)", "duration": "3 days", "measured": "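Percent of the per-plate non-targeting control median for intracellular GFP per well by laser scanning cytometry and for cell viability by ATP luminescence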", "scale": "GFP, % of control: higher = more GFP per well, higher productivity; viability (ATP), % of control: higher = more viable cells (more ATP)", "call rule": "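Called active when intracellular GFP, relative to negative control, is at or above 120%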", "note": "In all, the deposit lists about 50,000 reagents; this is a random part of them. Over the whole deposit, about 4,000 (8%) got an active call. 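Mouse siRNA library applied to hamster cells; one well for each siRNA.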 The numbers tell different reagents against one gene apart."}
{"Gene": "Pde7b (GeneID 29863)", "reagent": 1, "GFP, % of control": 62.5, "viability (ATP), % of control": 58.9, "Outcome": "inactive"}
{"Gene": "Pde7b (GeneID 29863)", "reagent": 2, "GFP, % of control": 85, "viability (ATP), % of control": 64.5, "Outcome": "inactive"}
{"Gene": "Pde7b (GeneID 29863)", "reagent": 3, "GFP, % of control": 121, "viability (ATP), % of control": 109, "Outcome": "active"}
{"Gene": "Cyp4a12b (GeneID 13118)", "reagent": 1, "GFP, % of control": 126, "viability (ATP), % of control": 57.1, "Outcome": "active"}
{"Gene": "Cyp4a12b (GeneID 13118)", "reagent": 2, "GFP, % of control": 71.5, "viability (ATP), % of control": 80.2, "Outcome": "inactive"}
{"Gene": "Cyp4a12b (GeneID 13118)", "reagent": 3, "GFP, % of control": 152, "viability (ATP), % of control": 63.1, "Outcome": "active"}

Records above whose gene name begins with C or c:
{"Gene": "Cyp4a12b (GeneID 13118)", "reagent": 1, "GFP, % of control": 126, "viability (ATP), % of control": 57.1, "Outcome": "active"}
{"Gene": "Cyp4a12b (GeneID 13118)", "reagent": 2, "GFP, % of control": 71.5, "viability (ATP), % of control": 80.2, "Outcome": "inactive"}
{"Gene": "Cyp4a12b (GeneID 13118)", "reagent": 3, "GFP, % of control": 152, "viability (ATP), % of control": 63.1, "Outcome": "active"}

The listing continues.
{"Gene": "Coq3 (GeneID 230027)", "reagent": 1, "GFP, % of control": 106, "viability (ATP), % of control": 81.8, "Outcome": "inactive"}
{"Gene": "Coq3 (GeneID 230027)", "reagent": 2, "GFP, % of control": 85.4, "viability (ATP), % of control": 114, "Outcome": "inactive"}
{"Gene": "Coq3 (GeneID 230027)", "reagent": 3, "GFP, % of control": 115, "viability (ATP), % of control": 92.5, "Outcome": "inactive"}
{"Gene": "Antxrl (GeneID 239029)", "reagent": 1, "GFP, % of control": 59.7, "viability (ATP), % of control": 32.8, "Outcome": "inactive"}
{"Gene": "Antxrl (GeneID 239029)", "reagent": 2, "GFP, % of control": 79.5, "viability (ATP), % of control": 62.3, "Outcome": "inactive"}
{"Gene": "Antxrl (GeneID 239029)", "reagent": 3, "GFP, % of control": 88.1, "viability (ATP), % of control": 80.4, "Outcome": "inactive"}
{"Gene": "Mcoln1 (GeneID 94178)", "reagent": 1, "GFP, % of control": 119, "viability (ATP), % of control": 111, "Outcome": "inactive"}
{"Gene": "Mcoln1 (GeneID 94178)", "reagent": 2, "GFP, % of control": 81.5, "viability (ATP), % of control": 63.5, "Outcome": "inactive"}
{"Gene": "Mcoln1 (GeneID 94178)", "reagent": 3, "GFP, % of control": 30.2, "viability (ATP), % of control": 46.8, "Outcome": "inactive"}
{"Gene": "Fbp2 (GeneID 14120)", "reagent": 1, "GFP, % of control": 113, "viability (ATP), % of control": 75.1, "Outcome": "inactive"}
{"Gene": "Fbp2 (GeneID 14120)", "reagent": 2, "GFP, % of control": 101, "viability (ATP), % of control": 94.6, "Outcome": "inactive"}
{"Gene": "Fbp2 (GeneID 14120)", "reagent": 3, "GFP, % of control": 104, "viability (ATP), % of control": 84.7, "Outcome": "inactive"}
